Reference: patent publication US7786054B2, “Biocide for well stimulation and treatment fluids” (Kemira Chemicals, Inc., priority 2006, dated 2010)

Test: Friction loop compatibility of biocide with anionic friction reducer

SMILES: O=S(=O)([O-])[O-].OC[P+](CO)(CO)CO.OC[P+](CO)(CO)CO [THPS, tetra-kis-hydroxymethyly-phosphonium sulfate]
- % FR through the last 10 seconds of the test (final % FR) (1000 ppm biocide, control 46.7%): 27.8%
- original friction reduction capacity of the polymer eliminated (1,000 ppm dosage): over 40%
- drop in absolute friction reduction (1,000 ppm dosage, versus control): 19.9%
- % FR relative to control, 150 to 420 second time interval (total biocide loading 1000 ppm, FIG. 6): severe performance degradation of the friction reducer
